{"source": "patent US20040091985A1", "about": "“NAD phosphite oxidoreductase, a novel catalyst from bacteria for regeneration of NAD(P)H” (priority 2002, published 2004)", "molecular_target": "T1, PtxD (Stutzerimonas stutzeri, UniProt O69054)", "T1 sequence (O69054 1-336)": "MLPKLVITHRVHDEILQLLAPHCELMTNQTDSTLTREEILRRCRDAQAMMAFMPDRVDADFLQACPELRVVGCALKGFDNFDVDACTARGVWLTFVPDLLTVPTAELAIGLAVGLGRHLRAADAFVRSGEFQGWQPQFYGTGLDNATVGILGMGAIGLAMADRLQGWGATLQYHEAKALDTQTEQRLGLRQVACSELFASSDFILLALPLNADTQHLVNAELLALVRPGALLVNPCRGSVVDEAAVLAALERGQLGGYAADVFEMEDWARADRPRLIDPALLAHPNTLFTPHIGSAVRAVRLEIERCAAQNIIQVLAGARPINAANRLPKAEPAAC", "format": "biochemical, Pseudomonas stutzeri WM88", "set-up": "made in house", "note": "At least one structure is not confirmed: it was looked up by name or label, or the drawing left a doubt.", "data": [{"compound": "CC(=O)C(=O)O", "note": "[pyruvate]", "values": [{"measurement": "reduction of potential substrate by PtxD with NADH (reverse direction)", "value": "unable to catalyze the reduction"}]}]}
